Reference: patent US20210220450A1, “TREATMENT OF AN IOP CONDITION” (The Research Foundation for The State University of New York, priority 2013, published 2021)
At least one compound was matched to its structure with a doubt left.

How the values were obtained:
[1] = system: Tg-MYOCY437H mice; assay: Outflow facility in Tg-MYOCY437H mouse eyes (Example 19); assay type: in vivo; settings: 5 days, intravitreal tPA or topical 0.2% PBA twice daily
Protocol: To investigate whether corticosteroids affect outflow facility in Tg-MYOCY437H mice, animals received bilateral injections (20 μl) with either triamcinolone acetonide (TA) (40 mg/ml, Kenalog-40; Bristol-Myers Squibb, NY, USA) suspension or phosphate-buffered saline (PBS) (Gibco, ThermoFisher Scientific, Waltham, Mass., USA) subconjunctivally using a 100 μL Hamilton syringe with a 26-gauge needle (Precision Glide, Becton Dickinson & CO, Franklin Lakes, N.J., USA). They were euthanized one week later for outflow facility measurement.
To investigate whether tPA can affect outflow facility in Tg-MYOCY437H mice, and determine whether tPA enzymatic action is necessary for such an effect, intravitreal injections were performed using a 10 μL Hamilton syringe with 36-gauge stainless steel needles (WPI Inc, Sarasota, Fla., USA). […] Animals were sacrificed either two or five days after intravitreal injections for outflow facility measurement. […]
Mouse eyes were enucleated immediately after euthanasia. Outflow facility was determined using a microfluidic flow sensor (0.07-1.5 uL/min, MFS1; Elveflow, Paris, France) and constant pressure method, as previously described (Hu, Barron et al. 2019). […] Any eyes that developed visible leaks or that had pressure-flow correlations with […] were excluded from analysis but were used for RNA quantification.

[2] = system: HTM cells; assay: Simulated outflow facility of HTM cells in artificial conventional outflow system (ACOS) (Examples 17, 18); assay type: cell-based; settings: 300 nM PA 72 h, then protein, baseline 8.9±1.7×10-1
Protocol: HTM cells were treated with 300 nM prednisolone acetate (PA) for 72 h to reduce outflow facility. They were then treated with either tissue plasminogen activator (tPA), non-enzymatically active tPA (NE-tPA) or bovine serum albumin (BSA) and perfused in artificial conventional outflow system (ACOS). Simulated outflow facilities (mean±standard deviation) (μl/min/mmHg/mm^2) was 2.4±0.6×10-1 for PA, 3±1.2×10-1 for PA+BSA, 7±1.2×10-1 for PA+tPA and 5.4±0.9×10-1 for PA+NE-tPA (p<0.0001, ANOVA).
HTM cells were treated with PA+NE-tPA and inhibitors of either LRP1 (RAP) or NMDA receptor (MK-801) and were perfused in ACOS. Simulated outflow facility (meant standard deviation μl/min/mmHg/mm^2) was 5.5±0.7×10-1 for PA+NE-tPA, 2.9±1.3×10-1 for PA+NE-tPA+MK-801, 2.7±1.2×10-1 for PA+NE-tPA+RAP and 3.3±1.3×10-1 for PA+NE-tPA+MK-801+RAP.

Compound	outflow facility, mean±standard deviation [1]	simulated outflow facility, mean±standard deviation [2]
O=C([O-])CCCc1ccccc1.[Na+] [PBA, sodium phenylbutarate, reference compound]	105±37.8×10−5 μl/min/mmHg	–
CC(=O)OCC(=O)[C@@]1(O)CC[C@H]2[C@@H]3CCC4=CC(=O)C=C[C@]4(C)[C@H]3[C@@H](O)C[C@@]21C [prednisolone, prednisolone acetate]	–	2.4±0.6×10-1 μl/min/mmHg/mm^2
